These are yes or no findings as the source states them, for the method shown. In cells and extracts the contact can be indirect. Some entries that bind do so weakly or less than the wild type. Sequences can lack the tags named with a protein.
How the values were obtained:
Assay in all cases: co-IP; HEK293 cells co-transfected with tagged LMP1 and tagged Id1; 400 µg of cell lysate incubated with primary antibody (anti-FLAG or anti-HA) for 2 hours, Protein A agarose for 1 hour, beads washed three times with lysis buffer; Western blot with anti-FLAG (M2) and anti-HA (12CA5)
Id1-HA = molecular target: T1, Id1-HA (UniProt P41134)
T1 sequence: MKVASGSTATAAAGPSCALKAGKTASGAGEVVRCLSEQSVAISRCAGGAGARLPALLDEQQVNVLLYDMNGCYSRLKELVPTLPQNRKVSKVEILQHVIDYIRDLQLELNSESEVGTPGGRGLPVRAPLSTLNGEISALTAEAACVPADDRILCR

Chains of the proteins cited; added tags and fusions are not shown.
UniProt P03230: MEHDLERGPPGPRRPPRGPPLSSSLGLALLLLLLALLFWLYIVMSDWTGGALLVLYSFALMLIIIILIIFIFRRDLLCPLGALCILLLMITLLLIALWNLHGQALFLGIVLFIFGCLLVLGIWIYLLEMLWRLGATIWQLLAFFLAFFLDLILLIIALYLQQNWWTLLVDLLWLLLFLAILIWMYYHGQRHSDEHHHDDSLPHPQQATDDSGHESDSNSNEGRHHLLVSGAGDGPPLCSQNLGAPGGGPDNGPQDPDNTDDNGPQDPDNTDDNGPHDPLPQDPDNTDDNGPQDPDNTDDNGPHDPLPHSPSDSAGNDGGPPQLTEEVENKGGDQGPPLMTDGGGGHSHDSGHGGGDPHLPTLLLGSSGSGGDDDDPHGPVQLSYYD

[1] = molecular target: HA-B95.8 LMP1 wild type (Epstein-Barr virus, B95.8 prototype) (UniProt P03230)
[2] = molecular target: FLAG-B95.8 LMP1 wild type (Epstein-Barr virus, B95.8 prototype) (UniProt P03230)

Molecule	binding [1]	other results
FLAG-B95.8 LMP1 wild type (from UniProt P03230 1-386)	–	binding (Id1-HA): binds
FLAG-Id1ΔN (from UniProt P41134 65-155) (domain or fragment)	no binding	–
Id1-HA (protein, UniProt P41134 1-155) MKVASGSTATAAAGPSCALKAGKTASGAGEVVRCLSEQSVAISRCAGGAGARLPALLDEQQVNVLLYDMNGCYSRLKELVPTLPQNRKVSKVEILQHVIDYIRDLQLELNSESEVGTPGGRGLPVRAPLSTLNGEISALTAEAACVPADDRILCR	–	binding [2]: binds
FLAG-Id1 (protein, UniProt P41134 1-155) MKVASGSTATAAAGPSCALKAGKTASGAGEVVRCLSEQSVAISRCAGGAGARLPALLDEQQVNVLLYDMNGCYSRLKELVPTLPQNRKVSKVEILQHVIDYIRDLQLELNSESEVGTPGGRGLPVRAPLSTLNGEISALTAEAACVPADDRILCR	binds	–
